In paper PMC7819943, “Rice protein-binding microarrays: a tool to detect cis-acting elements near promoter regions in rice”:
Some of the results follow.

Each sequence was assayed against T1, OsSMF1 (Oryza sativa, UniProt Q6ZLB0 1-436) (assay: protein-binding microarray (RPBM); PBS, 2% BSA, 51.3 ng/ul salmon testes DNA, 50 uM zinc acetate, 200 nM TF, 25 C, 1 h; high values mean tight binding). Conditions: protein: recombinant; tags: N-terminal polyhistidine and DsRed monomer fusion (pET32a); chain copies: 2; label: CyDye5-dUTP incorporated in the synthesized complementary strand; 3' TTTTT single-stranded linker to array surface; dsDNA, one strand shown.
T1 sequence: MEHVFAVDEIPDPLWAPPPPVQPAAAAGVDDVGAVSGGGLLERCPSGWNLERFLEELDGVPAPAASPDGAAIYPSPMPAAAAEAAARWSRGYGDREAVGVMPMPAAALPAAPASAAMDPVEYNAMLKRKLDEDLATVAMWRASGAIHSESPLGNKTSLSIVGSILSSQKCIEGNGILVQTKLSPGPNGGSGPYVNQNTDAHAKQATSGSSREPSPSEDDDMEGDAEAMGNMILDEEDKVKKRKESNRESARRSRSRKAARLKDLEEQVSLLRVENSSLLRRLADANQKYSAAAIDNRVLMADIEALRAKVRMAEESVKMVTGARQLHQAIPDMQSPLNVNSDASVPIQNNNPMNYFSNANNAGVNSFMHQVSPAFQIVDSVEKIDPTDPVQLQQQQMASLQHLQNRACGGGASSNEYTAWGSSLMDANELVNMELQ
Method in brief: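 Ni–NTA purification followed expression in E. coli BL21-CodonPlus of transcription factors fused N-terminally to a polyhistidine tag and DsRed. At 200 nM in PBS with 2% BSA, salmon testes DNA and 50 µM zinc acetate, the protein was incubated for 1 h at 25 °C with a custom Agilent array that had been primer-extended with Cy5-dUTP and blocked with 2% BSA. After washing, the array was read on an Axon 4000B scanner. The binding signal is per-feature fluorescence intensity in arbitrary units.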
“AAGCTGTTTTCTTCTGACGAGGCTCTCGGACACGCGAAGCCGGAGTCACCTAGTGCAG” was tested, and the binding signal was 3360 fluorescence intensity (a.u.).
“TAGCTATTGACTTAGCCACGCACACGATATGATGTTTCTACGGAGTCACCTAGTGCAG” was tested, and the binding signal was 4100 fluorescence intensity (a.u.).
For “CTTGCCCCGCGCTGAGTCCTTGGCATCTGATGCTTTATCTCGGAGTCACCTAGTGCAG”, the binding signal was 3190 fluorescence intensity (a.u.).
In the case of “CGTTTGCATGCATGCACGGTACACGTGGTGTGCATACGTACGGAGTCACCTAGTGCAG”, the binding signal is reported as 8520 fluorescence intensity (a.u.).
For “CCCACCCACCATACACGCATGCGACCCACTGGCACGCGGACGGAGTCACCTAGTGCAG”, the binding signal was 4220 fluorescence intensity (a.u.).
“AAGCTCCTTTGCTGAGACAGATTTCCGAGTAGCCGGCGAACGGAGTCACCTAGTGCAG” was tested, and the binding signal was 29400 fluorescence intensity (a.u.).
For “CAAGTCCTCCTCCTCAGGCCAGCCAGCTCACGCACGCATGCGGAGTCACCTAGTGCAG”, the binding signal was 7370 fluorescence intensity (a.u.).
In the case of “GCCTAGTTCAATTCACCCGTTTTCTGGCCCAATGGAAATTCGGAGTCACCTAGTGCAG”, the binding signal is reported as 3360 fluorescence intensity (a.u.).
“GCGGGGAGGATGAGGAGGGCTGACTAGTGGGACGACGCGGCGGAGTCACCTAGTGCAG” was tested, and the binding signal was 3220 fluorescence intensity (a.u.).
In the case of “ATACCATATGAGCAAATACGCAGGAATCAGTACTGTATTTCGGAGTCACCTAGTGCAG”, the binding signal is reported as 39500 fluorescence intensity (a.u.).
In the case of “AGAAAGTACTGTAACGTCGACGTCGATTGGTCAAGGCGCCCGGAGTCACCTAGTGCAG”, the binding signal is reported as 3410 fluorescence intensity (a.u.).
In the case of “GTTCAGAATGTGGTGGCGACGTAAGGTGATTTGGAAGGCGCGGAGTCACCTAGTGCAG”, the binding signal is reported as 43500 fluorescence intensity (a.u.).
With “CAGAATAATGTGATGCGAACACACATCATCAGTATTTGTACGGAGTCACCTAGTGCAG” the binding signal was 4830 fluorescence intensity (a.u.).
In the case of “TTCCTTCTCCTTCGTGCGTGTTTTAGCGTGTAACTGCTTCCGGAGTCACCTAGTGCAG”, the binding signal is reported as 3220 fluorescence intensity (a.u.).
With “AAAATTATCATAATAAATAATTGGAGCTGAATCGAGTAATCGGAGTCACCTAGTGCAG” the binding signal was 28900 fluorescence intensity (a.u.).
With “GGGCTACAAATACCCCGGCCACGTGACGCCACCGGATGCACGGAGTCACCTAGTGCAG” the binding signal was 3740 fluorescence intensity (a.u.).
For “CTCCACCAACCTTGCCACCATTCTGTCCAGTCAAAACTTGCGGAGTCACCTAGTGCAG”, the binding signal was 3990 fluorescence intensity (a.u.).
In the case of “TGGATCATGCATGCAAGTCACAGCAAGATCATGGCAAACACGGAGTCACCTAGTGCAG”, the binding signal is reported as 3340 fluorescence intensity (a.u.).
“AAACTTTAGAATCACATGTTACGTGTCACTGATTATAATACGGAGTCACCTAGTGCAG” was tested, and the binding signal was 7950 fluorescence intensity (a.u.).
With “TAAACATAAATTTGTCAGATACGTGTATTATTGTTTCACGCGGAGTCACCTAGTGCAG” the binding signal was 3860 fluorescence intensity (a.u.).
“ACTCTAAATTTAAACTTTTCACTCAATTGAAACTTTTCAACGGAGTCACCTAGTGCAG” was tested, and the binding signal was 24700 fluorescence intensity (a.u.).
For “ACGAGCGCGCCACGTGTACCGCTGGATCTTCGCGCATACGCGGAGTCACCTAGTGCAG”, the binding signal was 15300 fluorescence intensity (a.u.).
With “TTTGACTTCGGTTTTGGTATACGGCTGAGTCAGCATGAGACGGAGTCACCTAGTGCAG” the binding signal was 19500 fluorescence intensity (a.u.).
In the case of “GAGACAGGTAGACGAACGAGGTGACGTCACTCCATCGAGCCGGAGTCACCTAGTGCAG”, the binding signal is reported as 17100 fluorescence intensity (a.u.).
For “CTCTCTTCAGCTTGCCATATCTCTGTTGTTGACTTGCAAGCGGAGTCACCTAGTGCAG”, the binding signal was 16200 fluorescence intensity (a.u.).
In the case of “ACAAAGATATATGAACAAAGTATGAGTCAGTACATTAATGCGGAGTCACCTAGTGCAG”, the binding signal is reported as 7500 fluorescence intensity (a.u.).
In the case of “ATGGGGACGGCGAGGCTGGATACGGCCGTGGACGCGGCGGCGGAGTCACCTAGTGCAG”, the binding signal is reported as 3320 fluorescence intensity (a.u.).
In the case of “TGTCCCAGTCTTCATGAGGTGGACAGGTTTCACCCTCTCTCGGAGTCACCTAGTGCAG”, the binding signal is reported as 3240 fluorescence intensity (a.u.).
With “GGCATAGTATATTTTGACCTGATAATTACAGCCTGACGTGCGGAGTCACCTAGTGCAG” the binding signal was 4020 fluorescence intensity (a.u.).
“TCCGGCGCGCCTCGCCGTCAACCCACGCGGCGGCGCGGCGCGGAGTCACCTAGTGCAG” was tested, and the binding signal was 3440 fluorescence intensity (a.u.).
With “TTGGTTGGTCGAGGTTGATCTAACGCAGCCATTAGTCAAACGGAGTCACCTAGTGCAG” the binding signal was 24700 fluorescence intensity (a.u.).
“CGTGTGTGTGTTGCAGGTTTCACTGCAGTTGCTGGAGTTTCGGAGTCACCTAGTGCAG” was tested, and the binding signal was 3560 fluorescence intensity (a.u.).
“ATGGCGGTTTCGCTGACATGGCGCTTACATGGCGGTGTTGCGGAGTCACCTAGTGCAG” was tested, and the binding signal was 12800 fluorescence intensity (a.u.).
With “CATAAGTGCATGGACAATTCCTCTAATGCCATGCACTGCCCGGAGTCACCTAGTGCAG” the binding signal was 26800 fluorescence intensity (a.u.).
“ACCACGGGGAAACCATGCATCAACACCGTGACGCCACGGTCGGAGTCACCTAGTGCAG” was tested, and the binding signal was 3230 fluorescence intensity (a.u.).
For “GACGTCACACATTCATCCACGTCATCGATCCGCGGGACAACGGAGTCACCTAGTGCAG”, the binding signal was 11900 fluorescence intensity (a.u.).
With “AACAACCCAACCCAACCGATGCGCGACGCAGTGACGCAGGCGGAGTCACCTAGTGCAG” the binding signal was 4930 fluorescence intensity (a.u.).
With “CGTCGCCGGCACGGCAGAGCACAAGACGTGGATGTCCAAGCGGAGTCACCTAGTGCAG” the binding signal was 4310 fluorescence intensity (a.u.).
“ACTCATATAGTGTGGTCATACTGAGTCACTGATCAACCAACGGAGTCACCTAGTGCAG” was tested, and the binding signal was 8810 fluorescence intensity (a.u.).
With “TGGATTTCAGGTAAACAAACGGTTACCGCGATAACTGTTTCGGAGTCACCTAGTGCAG” the binding signal was 3350 fluorescence intensity (a.u.).
“ATCCCTACTCGCTCCTCGTCCACGCCACTTCAGTAGGTTGCGGAGTCACCTAGTGCAG” was tested, and the binding signal was 4890 fluorescence intensity (a.u.).
For “CATCCTAACGGATTATTCTCTCAACCCCACGAACCATTCACGGAGTCACCTAGTGCAG”, the binding signal was 19200 fluorescence intensity (a.u.).
